From article PMC9284171
These are yes or no findings as the source states them, for the method shown. Binding seen in cells or lysates may run through a third protein. Some entries that bind do so weakly or less than the wild type.

Amino acid sequences for entries named in this document (tags omitted).
UniProt P15104: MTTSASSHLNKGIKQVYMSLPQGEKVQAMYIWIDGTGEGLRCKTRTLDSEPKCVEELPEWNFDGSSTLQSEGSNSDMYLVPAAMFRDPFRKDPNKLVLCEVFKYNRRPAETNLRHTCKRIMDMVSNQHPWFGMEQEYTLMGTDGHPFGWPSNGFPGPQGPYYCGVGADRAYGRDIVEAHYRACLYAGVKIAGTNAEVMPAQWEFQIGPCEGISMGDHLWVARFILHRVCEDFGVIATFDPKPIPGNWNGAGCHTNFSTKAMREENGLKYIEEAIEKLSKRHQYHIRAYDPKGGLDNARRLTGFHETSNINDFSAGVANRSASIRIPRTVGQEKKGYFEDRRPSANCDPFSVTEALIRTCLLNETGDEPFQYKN
UniProt O15379: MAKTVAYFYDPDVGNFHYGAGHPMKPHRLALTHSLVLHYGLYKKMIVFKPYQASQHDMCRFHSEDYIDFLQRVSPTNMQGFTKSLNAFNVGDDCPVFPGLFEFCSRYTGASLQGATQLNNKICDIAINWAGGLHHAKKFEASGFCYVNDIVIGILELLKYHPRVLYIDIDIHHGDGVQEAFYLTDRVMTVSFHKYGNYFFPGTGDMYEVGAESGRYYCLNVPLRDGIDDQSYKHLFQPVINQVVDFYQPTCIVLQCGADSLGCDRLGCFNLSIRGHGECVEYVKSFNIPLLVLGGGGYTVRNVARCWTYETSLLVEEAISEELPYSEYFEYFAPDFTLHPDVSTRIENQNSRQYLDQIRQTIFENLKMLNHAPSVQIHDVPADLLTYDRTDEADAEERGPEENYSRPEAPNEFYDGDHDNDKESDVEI

Biological target: glutamine synthetase (GS), Flag-tagged (human) (UniProt P15104)
Assay: co-IP; co-IP from cells cultured with or without glutamine (Figure S7A-D); bait, cell line and buffers not shown

binding: binds
Substance: HDAC3, HA-tagged (from UniProt O15379 1-428) (enzyme)
